Laboratory results as given in the supplement of paper PMC8728848.
The list shows a part of the results.

How the values were obtained:
Assay in all cases: glycan array binding signal (z-score within array); higher = stronger binding
Details in all cases: glycan notation: IUPAC condensed, linker removed
[1] = biological target: GlcNAc(a1-6)Gal(b1-4)GlcNAc
Outline: (§1)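 The Consortium for Functional Glycomics database supplied 3228 glycan arrays, of which those lacking an available protein sequence were dropped. The binding signal, a within-array Z-score, was averaged across arrays of the same protein sequence and across linkers. Negative scores can be read as non-binding.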

[2] = biological target: GlcNAc(b1-2)Gal(b1-3)GalNAc
Outline: as §1

[3] = biological target: GlcNAc(b1-2)Man(a1-3)[GlcNAc(b1-2)Man(a1-6)]Man(b1-4)GlcNAc(b1-4)GlcNAc
Outline: as §1

[4] = biological target: GlcNAc(b1-2)Man(a1-3)[GlcNAc(b1-2)Man(a1-6)]Man(b1-4)GlcNAc(b1-4)[Fuc(a1-6)]GlcNAc
Outline: as §1

[5] = biological target: GlcNAc(b1-2)Man(a1-3)[GlcNAc(b1-4)][GlcNAc(b1-2)Man(a1-6)]Man(b1-4)GlcNAc(b1-4)GlcNAc
Outline: as §1

[6] = biological target: GlcNAc(b1-2)Man(a1-3)[GlcNAc(b1-4)][GlcNAc(b1-2)Man(a1-6)]Man(b1-4)GlcNAc(b1-4)[Fuc(a1-6)]GlcNAc
Outline: as §1

[7] = biological target: GlcNAc(b1-2)[GlcNAc(b1-4)]Man(a1-3)[GlcNAc(b1-2)Man(a1-6)]Man(b1-4)GlcNAc(b1-4)GlcNAc
Outline: as §1

[8] = biological target: GlcNAc(b1-2)[GlcNAc(b1-4)]Man(a1-3)[GlcNAc(b1-4)][GlcNAc(b1-2)Man(a1-6)]Man(b1-4)GlcNAc(b1-4)GlcNAc
Outline: as §1

[9] = biological target: GlcNAc(b1-2)[GlcNAc(b1-4)]Man(a1-3)[GlcNAc(b1-4)][GlcNAc(b1-2)[GlcNAc(b1-6)]Man(a1-6)]Man(b1-4)GlcNAc(b1-4)GlcNAc
Outline: as §1

[10] = biological target: GlcNAc(b1-2)[GlcNAc(b1-4)]Man(a1-3)[GlcNAc(b1-4)][GlcNAc(b1-2)[GlcNAc(b1-6)]Man(a1-6)]Man(b1-4)GlcNAc(b1-4)[Fuc(a1-6)]GlcNAc
Outline: as §1

[11] = biological target: GlcNAc(b1-2)[GlcNAc(b1-6)]Man(a1-6)[GlcNAc(b1-2)Man(a1-3)]Man(b1-4)GlcNAc(b1-4)GlcNAc
Outline: as §1

[12] = biological target: GlcNAc(b1-2)[GlcNAc(b1-6)]Man(a1-6)[GlcNAc(b1-2)Man(a1-3)]Man(b1-4)GlcNAc(b1-4)[Fuc(a1-6)]GlcNAc
Outline: as §1

[13] = biological target: GlcNAc(b1-2)[GlcNAc(b1-6)]Man(a1-6)[GlcNAc(b1-4)][GlcNAc(b1-2)Man(a1-3)]Man(b1-4)GlcNAc(b1-4)GlcNAc
Outline: as §1

[14] = biological target: GlcNAc(b1-3)Fuc
Outline: as §1

[15] = biological target: GlcNAc(b1-3)Gal
Outline: as §1

[16] = biological target: GlcNAc(b1-3)Gal(b1-3)GalNAc
Outline: as §1

[17] = biological target: GlcNAc(b1-3)Gal(b1-4)Glc
Outline: as §1

[18] = biological target: GlcNAc(b1-3)Gal(b1-4)GlcNAc
Outline: as §1

[19] = biological target: GlcNAc(b1-3)Gal(b1-4)GlcNAc(b1-2)Man(a1-3)[GlcNAc(b1-3)Gal(b1-4)GlcNAc(b1-2)Man(a1-6)]Man(b1-4)GlcNAc(b1-4)GlcNAc
Outline: as §1

[20] = biological target: GlcNAc(b1-3)Gal(b1-4)GlcNAc(b1-2)Man(a1-3)[GlcNAc(b1-3)Gal(b1-4)GlcNAc(b1-2)Man(a1-6)]Man(b1-4)GlcNAc(b1-4)[Fuc(a1-6)]GlcNAc
Outline: as §1

[21] = biological target: GlcNAc(b1-3)Gal(b1-4)GlcNAc(b1-2)[GlcNAc(b1-3)Gal(b1-4)GlcNAc(b1-6)]Man(a1-6)[GlcNAc(b1-3)Gal(b1-4)GlcNAc(b1-2)Man(a1-3)]Man(b1-4)GlcNAc(b1-4)GlcNAc
Outline: as §1

[22] = biological target: GlcNAc(b1-3)Gal(b1-4)GlcNAc(b1-3)Gal(b1-4)GlcNAc
Outline: as §1

[23] = biological target: GlcNAc(b1-3)Gal(b1-4)GlcNAc(b1-3)Gal(b1-4)GlcNAc(b1-2)Man(a1-3)[GlcNAc(b1-3)Gal(b1-4)GlcNAc(b1-3)Gal(b1-4)GlcNAc(b1-2)Man(a1-6)]Man(b1-4)GlcNAc(b1-4)GlcNAc
Outline: as §1

[24] = biological target: GlcNAc(b1-3)Gal(b1-4)GlcNAc(b1-3)Gal(b1-4)GlcNAc(b1-2)Man(a1-3)[GlcNAc(b1-3)Gal(b1-4)GlcNAc(b1-3)Gal(b1-4)GlcNAc(b1-2)Man(a1-6)]Man(b1-4)GlcNAc(b1-4)[Fuc(a1-6)]GlcNAc
Outline: as §1

[25] = biological target: GlcNAc(b1-3)Gal(b1-4)GlcNAc(b1-3)Gal(b1-4)GlcNAc(b1-2)[GlcNAc(b1-3)Gal(b1-4)GlcNAc(b1-3)Gal(b1-4)GlcNAc(b1-6)]Man(a1-6)[GlcNAc(b1-3)Gal(b1-4)GlcNAc(b1-3)Gal(b1-4)GlcNAc(b1-2)Man(a1-3)]Man(b1-4)GlcNAc(b1-4)[Fuc(a1-6)]GlcNAc
Outline: as §1

[26] = biological target: GlcNAc(b1-3)Gal(b1-4)GlcNAc(b1-3)Gal(b1-4)GlcNAc(b1-3)Gal(b1-4)GlcNAc(b1-2)Man(a1-3)[GlcNAc(b1-3)Gal(b1-4)GlcNAc(b1-3)Gal(b1-4)GlcNAc(b1-3)Gal(b1-4)GlcNAc(b1-2)Man(a1-6)]Man(b1-4)GlcNAc(b1-4)GlcNAc
Outline: as §1

[27] = biological target: GlcNAc(b1-3)Gal(b1-4)GlcNAc(b1-3)Gal(b1-4)GlcNAc(b1-3)Gal(b1-4)GlcNAc(b1-2)Man(a1-3)[GlcNAc(b1-3)Gal(b1-4)GlcNAc(b1-3)Gal(b1-4)GlcNAc(b1-3)Gal(b1-4)GlcNAc(b1-2)Man(a1-6)]Man(b1-4)GlcNAc(b1-4)[Fuc(a1-6)]GlcNAc
Outline: as §1

[28] = biological target: GlcNAc(b1-3)Gal(b1-4)GlcNAc(b1-3)Gal(b1-4)GlcNAc(b1-3)Gal(b1-4)GlcNAc(b1-2)[GlcNAc(b1-3)Gal(b1-4)GlcNAc(b1-3)Gal(b1-4)GlcNAc(b1-3)Gal(b1-4)GlcNAc(b1-6)]Man(a1-6)[GlcNAc(b1-3)Gal(b1-4)GlcNAc(b1-3)Gal(b1-4)GlcNAc(b1-3)Gal(b1-4)GlcNAc(b1-2)Man(a1-3)]Man(b1-4)GlcNAc(b1-4)[Fuc(a1-6)]GlcNAc
Outline: as §1

[29] = biological target: GlcNAc(b1-3)Gal(b1-4)GlcNAc(b1-3)Gal(b1-4)GlcNAc(b1-3)Gal(b1-4)GlcNAc(b1-3)Gal(b1-4)GlcNAc(b1-2)Man(a1-3)[GlcNAc(b1-3)Gal(b1-4)GlcNAc(b1-3)Gal(b1-4)GlcNAc(b1-3)Gal(b1-4)GlcNAc(b1-3)Gal(b1-4)GlcNAc(b1-2)Man(a1-6)]Man(b1-4)GlcNAc(b1-4)GlcNAc
Outline: as §1

[30] = biological target: GlcNAc(b1-3)Gal(b1-4)GlcNAc(b1-3)Gal(b1-4)GlcNAc(b1-3)Gal(b1-4)GlcNAc(b1-3)Gal(b1-4)GlcNAc(b1-2)Man(a1-3)[GlcNAc(b1-3)Gal(b1-4)GlcNAc(b1-3)Gal(b1-4)GlcNAc(b1-3)Gal(b1-4)GlcNAc(b1-3)Gal(b1-4)GlcNAc(b1-2)Man(a1-6)]Man(b1-4)GlcNAc(b1-4)[Fuc(a1-6)]GlcNAc
Outline: as §1

[31] = biological target: GlcNAc(b1-3)Gal(b1-4)GlcNAc(b1-3)Gal(b1-4)GlcNAc(b1-3)Gal(b1-4)GlcNAc(b1-3)Gal(b1-4)GlcNAc(b1-2)[GlcNAc(b1-3)Gal(b1-4)GlcNAc(b1-3)Gal(b1-4)GlcNAc(b1-3)Gal(b1-4)GlcNAc(b1-3)Gal(b1-4)GlcNAc(b1-6)]Man(a1-6)[GlcNAc(b1-3)Gal(b1-4)GlcNAc(b1-3)Gal(b1-4)GlcNAc(b1-3)Gal(b1-4)GlcNAc(b1-3)Gal(b1-4)GlcNAc(b1-2)Man(a1-3)]Man(b1-4)GlcNAc(b1-4)[Fuc(a1-6)]GlcNAc
Outline: as §1

[32] = biological target: GlcNAc(b1-3)Gal(b1-4)GlcNAc(b1-3)Gal(b1-4)GlcNAc(b1-3)GalNAc
Outline: as §1

[33] = biological target: GlcNAc(b1-3)Gal(b1-4)GlcNAc(b1-3)GalNAc
Outline: as §1

[34] = biological target: GlcNAc(b1-3)Gal(b1-4)GlcNAc(b1-3)[GlcNAc(b1-3)Gal(b1-4)GlcNAc(b1-3)]GalNAc
Outline: as §1

[35] = biological target: GlcNAc(b1-3)Gal(b1-4)GlcNAc(b1-6)[Gal(b1-3)]GalNAc
Outline: as §1

[36] = biological target: GlcNAc(b1-3)Gal(b1-4)GlcNAc(b1-6)[GlcNAc(b1-3)Gal(b1-3)]GalNAc
Outline: as §1

[37] = biological target: GlcNAc(b1-3)Gal(b1-4)GlcNAc(b1-6)[GlcNAc(b1-3)]Gal(b1-4)GlcNAc
Outline: as §1

B1: Clec12b (Mus musculus), Q149M0 (protein)
chain: MSDEVTYATLMLQDSARVRGNQDGNNLRKEGHPAQSSLWRGAALSLMTLCLVLVTGLVTLATMFLQVSNDINSDSEKLSQLQKSIHPQQDNLSESLNSSRKSLTEESLQSQISALLERQEQMATKLCKEFLIHASDHKCNPCPKTWQWYGNSCYYFSINEEKSWSDSRKDCIDKNATLVKIDSTEERDLLQSQLSLTFSFFWLGLSWNSSGRNWLWEDGSFPPPTLFSDKELASFNGSRDCAYFERGNIYASRCSAEIPWICEKTASLVKTEDLD
glycan array binding signal (z-score) [1]: -0.463
glycan array binding signal (z-score) [2]: 0.039
glycan array binding signal (z-score) [3]: -0.704
glycan array binding signal (z-score) [4]: 0.763
glycan array binding signal (z-score) [5]: -0.757
glycan array binding signal (z-score) [6]: -0.652
glycan array binding signal (z-score) [7]: -0.656
glycan array binding signal (z-score) [8]: 0.052
glycan array binding signal (z-score) [9]: -0.558
glycan array binding signal (z-score) [10]: -0.799
glycan array binding signal (z-score) [11]: -0.705
glycan array binding signal (z-score) [12]: -0.602
glycan array binding signal (z-score) [13]: -0.828
glycan array binding signal (z-score) [14]: -0.612
glycan array binding signal (z-score) [15]: -0.39
glycan array binding signal (z-score) [16]: 0.06
glycan array binding signal (z-score) [17]: 2.54
glycan array binding signal (z-score) [18]: -0.633
glycan array binding signal (z-score) [19]: -0.661
glycan array binding signal (z-score) [20]: -0.412
glycan array binding signal (z-score) [21]: 1.09
glycan array binding signal (z-score) [22]: -0.821
glycan array binding signal (z-score) [23]: -0.27
glycan array binding signal (z-score) [24]: -0.653
glycan array binding signal (z-score) [25]: 1.27
glycan array binding signal (z-score) [26]: -0.433
glycan array binding signal (z-score) [27]: -0.509
glycan array binding signal (z-score) [28]: -0.301
glycan array binding signal (z-score) [29]: -0.627
glycan array binding signal (z-score) [30]: -0.545
glycan array binding signal (z-score) [31]: -0.589
glycan array binding signal (z-score) [32]: -0.622
glycan array binding signal (z-score) [33]: -0.626
glycan array binding signal (z-score) [34]: 0.082
glycan array binding signal (z-score) [35]: -0.645
glycan array binding signal (z-score) [36]: -0.615
glycan array binding signal (z-score) [37]: -0.621
